Measured values reported in article PMC12440825.
No constants are given. Whether binding was seen depends on the method and setting. In cells and extracts the contact can be indirect. Some results given as binding are weak or reduced against the parent protein; the word gives no strength. Sequences can lack the tags named with a protein.

The chains behind the UniProt entries cited, without tags or fusion partners.
UniProt P33328: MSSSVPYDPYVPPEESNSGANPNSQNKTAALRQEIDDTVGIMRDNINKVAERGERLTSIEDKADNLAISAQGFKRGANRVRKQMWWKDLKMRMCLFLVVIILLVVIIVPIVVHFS
UniProt P40357: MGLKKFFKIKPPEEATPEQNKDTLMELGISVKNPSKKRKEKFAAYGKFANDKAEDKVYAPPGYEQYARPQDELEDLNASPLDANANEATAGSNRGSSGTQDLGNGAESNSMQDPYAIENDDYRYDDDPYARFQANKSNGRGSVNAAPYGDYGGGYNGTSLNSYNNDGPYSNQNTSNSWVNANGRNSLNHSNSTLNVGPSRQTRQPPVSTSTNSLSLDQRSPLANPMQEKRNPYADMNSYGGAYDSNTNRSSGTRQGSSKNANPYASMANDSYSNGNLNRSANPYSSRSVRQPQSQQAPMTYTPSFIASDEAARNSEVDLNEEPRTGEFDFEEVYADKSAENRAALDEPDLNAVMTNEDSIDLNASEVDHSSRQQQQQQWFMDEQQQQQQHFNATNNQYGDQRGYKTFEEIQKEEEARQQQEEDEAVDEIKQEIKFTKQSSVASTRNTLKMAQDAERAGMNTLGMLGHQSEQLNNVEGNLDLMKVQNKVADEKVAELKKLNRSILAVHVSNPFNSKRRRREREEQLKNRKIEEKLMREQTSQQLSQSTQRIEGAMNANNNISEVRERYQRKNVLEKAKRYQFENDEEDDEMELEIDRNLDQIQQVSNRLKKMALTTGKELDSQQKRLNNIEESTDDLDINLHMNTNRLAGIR
UniProt Q08144: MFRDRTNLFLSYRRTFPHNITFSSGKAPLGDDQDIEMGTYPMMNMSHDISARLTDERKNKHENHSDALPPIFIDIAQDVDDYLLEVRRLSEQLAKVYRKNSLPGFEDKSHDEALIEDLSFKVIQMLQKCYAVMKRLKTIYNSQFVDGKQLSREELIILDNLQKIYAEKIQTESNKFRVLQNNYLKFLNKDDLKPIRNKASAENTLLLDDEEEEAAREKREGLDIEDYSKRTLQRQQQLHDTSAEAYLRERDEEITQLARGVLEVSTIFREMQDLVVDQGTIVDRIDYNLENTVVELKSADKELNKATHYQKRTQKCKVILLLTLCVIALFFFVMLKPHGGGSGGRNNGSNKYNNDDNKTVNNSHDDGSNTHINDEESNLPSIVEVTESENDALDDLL
UniProt P32867: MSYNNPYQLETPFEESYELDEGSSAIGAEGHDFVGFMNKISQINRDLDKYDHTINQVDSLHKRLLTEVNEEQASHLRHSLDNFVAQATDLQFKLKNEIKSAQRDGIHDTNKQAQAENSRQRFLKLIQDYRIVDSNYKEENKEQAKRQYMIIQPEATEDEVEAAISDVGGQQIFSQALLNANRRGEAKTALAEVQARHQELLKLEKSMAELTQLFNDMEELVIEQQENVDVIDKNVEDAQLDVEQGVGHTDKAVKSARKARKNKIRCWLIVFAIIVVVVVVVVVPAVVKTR

Molecular target: T1, HA-tagged Sec18 (pYK175, 3×Flag N-terminal tag, HA C-terminal tag) (S. cerevisiae) (UniProt P18759)
T1 sequence: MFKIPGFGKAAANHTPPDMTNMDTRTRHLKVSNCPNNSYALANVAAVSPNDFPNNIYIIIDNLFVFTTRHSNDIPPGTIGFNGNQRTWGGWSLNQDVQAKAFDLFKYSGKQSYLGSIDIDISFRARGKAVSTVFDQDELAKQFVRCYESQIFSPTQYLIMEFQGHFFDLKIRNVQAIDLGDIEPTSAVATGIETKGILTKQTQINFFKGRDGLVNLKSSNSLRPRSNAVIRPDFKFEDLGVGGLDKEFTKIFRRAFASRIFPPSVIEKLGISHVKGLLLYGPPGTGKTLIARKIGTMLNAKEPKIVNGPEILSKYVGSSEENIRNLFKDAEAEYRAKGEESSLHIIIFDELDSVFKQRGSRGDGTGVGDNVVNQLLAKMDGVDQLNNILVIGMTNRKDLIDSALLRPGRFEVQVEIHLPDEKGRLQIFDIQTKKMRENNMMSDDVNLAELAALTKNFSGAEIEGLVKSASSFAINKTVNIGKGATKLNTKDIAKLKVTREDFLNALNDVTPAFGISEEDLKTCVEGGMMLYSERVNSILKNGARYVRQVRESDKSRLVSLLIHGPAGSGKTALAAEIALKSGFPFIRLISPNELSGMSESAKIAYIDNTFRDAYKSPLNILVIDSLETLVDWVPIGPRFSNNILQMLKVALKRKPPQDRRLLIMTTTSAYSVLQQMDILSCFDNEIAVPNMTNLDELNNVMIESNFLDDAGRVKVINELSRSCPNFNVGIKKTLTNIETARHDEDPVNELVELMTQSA
Experiment: cross-linking; in vivo XL-MS: spheroplasts of S. cerevisiae S288C expressing tagged Sec18 treated with DSG (5 mM) for 30 min, lysis, magnetic bead anti-HA co-IP, SDS-PAGE bands of crosslinked Sec18 excised, LC-MS/MS; crosslinks graded high, medium or low confidence

Row | binding | Substance
1 | binds | Snc2 (endogenous) (from UniProt P33328 1-115)
2 | binds | Sec9 (endogenous) (from UniProt P40357 1-651)
3 | binds | TLG2 (endogenous) (from UniProt Q08144 1-397)
4 | binds | Sso1 (endogenous) (from UniProt P32867 1-290)
